The values are deposited in ChEMBL (CHEMBL3988442, “University of Dundee, Small-Polar-MMV Screening Library” (2021)).

Amino acid sequences for entries named in this document (tags omitted). Residues count along the entry.
UniProt P9WFT3, whole entry: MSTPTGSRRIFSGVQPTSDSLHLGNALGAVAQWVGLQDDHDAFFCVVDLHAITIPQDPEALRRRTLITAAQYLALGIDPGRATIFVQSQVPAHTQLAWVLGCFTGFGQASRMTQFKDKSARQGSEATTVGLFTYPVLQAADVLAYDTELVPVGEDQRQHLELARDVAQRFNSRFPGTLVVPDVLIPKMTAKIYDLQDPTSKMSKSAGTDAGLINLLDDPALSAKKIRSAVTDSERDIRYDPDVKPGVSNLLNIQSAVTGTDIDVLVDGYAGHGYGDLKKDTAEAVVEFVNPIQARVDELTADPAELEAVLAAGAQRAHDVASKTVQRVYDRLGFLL
UniProt I6X8D2, whole entry: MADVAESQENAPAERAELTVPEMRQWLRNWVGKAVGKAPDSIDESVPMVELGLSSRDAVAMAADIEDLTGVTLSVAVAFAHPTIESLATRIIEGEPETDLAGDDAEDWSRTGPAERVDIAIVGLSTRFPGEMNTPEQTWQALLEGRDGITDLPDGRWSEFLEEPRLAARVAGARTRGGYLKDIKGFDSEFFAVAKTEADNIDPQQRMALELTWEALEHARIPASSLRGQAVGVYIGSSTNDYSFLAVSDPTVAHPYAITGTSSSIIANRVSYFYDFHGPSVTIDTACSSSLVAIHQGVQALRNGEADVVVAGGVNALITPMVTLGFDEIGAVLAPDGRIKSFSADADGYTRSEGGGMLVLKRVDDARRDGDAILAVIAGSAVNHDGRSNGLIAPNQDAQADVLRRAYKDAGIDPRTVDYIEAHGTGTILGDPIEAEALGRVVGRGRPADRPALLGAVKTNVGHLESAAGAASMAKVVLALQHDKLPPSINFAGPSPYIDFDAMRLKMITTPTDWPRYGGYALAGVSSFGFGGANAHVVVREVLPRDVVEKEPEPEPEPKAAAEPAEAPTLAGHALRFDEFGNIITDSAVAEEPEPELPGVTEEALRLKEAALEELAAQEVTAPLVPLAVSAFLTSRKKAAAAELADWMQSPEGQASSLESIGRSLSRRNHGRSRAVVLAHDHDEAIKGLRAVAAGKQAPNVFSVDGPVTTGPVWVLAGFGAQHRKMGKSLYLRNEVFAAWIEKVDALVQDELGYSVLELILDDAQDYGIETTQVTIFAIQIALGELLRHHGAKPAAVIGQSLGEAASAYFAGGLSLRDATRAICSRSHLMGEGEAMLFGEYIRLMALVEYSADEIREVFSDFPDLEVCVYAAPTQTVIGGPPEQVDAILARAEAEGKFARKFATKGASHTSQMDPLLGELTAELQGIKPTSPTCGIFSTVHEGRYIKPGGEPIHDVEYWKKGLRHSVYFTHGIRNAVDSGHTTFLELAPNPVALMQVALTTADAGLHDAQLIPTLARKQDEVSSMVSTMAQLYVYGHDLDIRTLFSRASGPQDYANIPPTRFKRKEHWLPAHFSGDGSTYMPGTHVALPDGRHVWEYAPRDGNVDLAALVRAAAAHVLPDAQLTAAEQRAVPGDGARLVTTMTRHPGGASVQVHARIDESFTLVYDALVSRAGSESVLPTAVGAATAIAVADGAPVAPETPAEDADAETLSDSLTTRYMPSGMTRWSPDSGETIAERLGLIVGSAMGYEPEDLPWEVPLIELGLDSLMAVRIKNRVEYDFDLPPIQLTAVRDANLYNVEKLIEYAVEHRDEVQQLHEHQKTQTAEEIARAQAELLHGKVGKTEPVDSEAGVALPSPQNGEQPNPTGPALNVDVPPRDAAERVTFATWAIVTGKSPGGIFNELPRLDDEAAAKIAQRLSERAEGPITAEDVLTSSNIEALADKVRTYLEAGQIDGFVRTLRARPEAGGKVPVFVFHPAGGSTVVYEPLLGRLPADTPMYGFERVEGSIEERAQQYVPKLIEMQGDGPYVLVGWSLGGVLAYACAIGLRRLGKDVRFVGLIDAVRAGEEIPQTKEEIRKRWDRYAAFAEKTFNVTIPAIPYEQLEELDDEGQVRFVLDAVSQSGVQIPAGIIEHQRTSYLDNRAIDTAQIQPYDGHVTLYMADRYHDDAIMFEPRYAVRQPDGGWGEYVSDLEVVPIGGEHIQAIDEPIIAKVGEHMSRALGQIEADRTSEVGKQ
UniProt A4I591, 1-473: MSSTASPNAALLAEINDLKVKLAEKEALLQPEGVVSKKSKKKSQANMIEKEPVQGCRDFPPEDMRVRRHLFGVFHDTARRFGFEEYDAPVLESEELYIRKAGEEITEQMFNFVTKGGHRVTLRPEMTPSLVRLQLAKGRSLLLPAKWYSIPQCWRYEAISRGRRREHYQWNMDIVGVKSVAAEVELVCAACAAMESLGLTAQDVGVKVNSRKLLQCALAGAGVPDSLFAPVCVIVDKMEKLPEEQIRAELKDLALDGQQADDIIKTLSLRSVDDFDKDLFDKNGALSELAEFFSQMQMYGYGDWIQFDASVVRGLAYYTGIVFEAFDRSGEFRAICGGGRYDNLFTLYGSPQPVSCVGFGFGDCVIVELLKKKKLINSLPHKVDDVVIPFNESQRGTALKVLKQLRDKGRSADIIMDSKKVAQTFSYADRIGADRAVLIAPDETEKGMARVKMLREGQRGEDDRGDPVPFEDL
UniProt Q4DA54, 1-478: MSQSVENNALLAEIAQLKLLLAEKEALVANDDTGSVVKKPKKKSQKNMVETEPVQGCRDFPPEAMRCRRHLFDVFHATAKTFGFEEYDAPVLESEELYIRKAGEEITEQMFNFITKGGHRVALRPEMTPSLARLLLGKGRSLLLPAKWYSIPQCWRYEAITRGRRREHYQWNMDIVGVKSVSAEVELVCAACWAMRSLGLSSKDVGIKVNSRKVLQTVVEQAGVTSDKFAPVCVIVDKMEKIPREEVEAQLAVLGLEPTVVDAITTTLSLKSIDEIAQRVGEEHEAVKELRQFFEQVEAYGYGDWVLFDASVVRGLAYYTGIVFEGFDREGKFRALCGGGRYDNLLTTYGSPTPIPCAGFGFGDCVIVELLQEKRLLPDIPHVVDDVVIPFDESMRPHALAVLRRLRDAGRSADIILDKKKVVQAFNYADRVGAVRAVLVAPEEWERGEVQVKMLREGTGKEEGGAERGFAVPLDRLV

Results are given as percent effect.
The controls that fix the scale are not given in the record; negative values are as filed.
This is an unselected part of the compounds tested.
A dash means the value is not listed here; it may have been measured.

MtTrpRS: 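Tryptophan-tRNA ligase, Mycobacterium tuberculosis (UniProt P9WFT3). Enzyme assay of tryptophanyl-tRNA synthetase; the read-out is not stated. Concentration: 10 µM. Direction is not recorded; retested compounds ran higher, which suggests that high means inhibition. About 65,000 compounds were tested under these conditions; 0.098% (about 64) showed 50% or more at least once.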
Pks13 thioesterase: 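Polyketide synthase Pks13, Mycobacterium tuberculosis (UniProt I6X8D2). Enzyme assay of the thioesterase domain of polyketide synthase 13; the read-out is not stated. Tested at 30 µM. The record gives no direction; the compounds picked for IC50 retests had high values, so higher reads as stronger inhibition. Size under these conditions: about 67,000 compounds, about 300 of them at 50% or above in at least one test.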
LiHisRS: 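Enzyme assay of histidyl-tRNA synthetase; the read-out is not stated. Target: Histidine-tRNA ligase, Leishmania infantum (UniProt A4I591). Compounds at 30 µM. Higher reads as stronger inhibition (inferred: compounds with an IC50 in retests scored well above the rest). The assay is labelled LdHisRS but filed under L. infantum. About 69,000 compounds were tested under these conditions; 0.6% (about 410) showed 50% or more at least once.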
TcHisRS: 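Enzyme assay of histidyl-tRNA synthetase; the read-out is not stated. Target: Histidine-tRNA ligase, Trypanosoma cruzi CL Brener (UniProt Q4DA54). Tested at 30 µM. The record gives no direction; compounds that gave an IC50 in retests scored well above the rest, so higher reads as stronger inhibition. About 69,000 compounds were tested under these conditions; 0.045% (about 31) showed 50% or more at least once.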

compound	MtTrpRS	Pks13 thioesterase	LiHisRS	TcHisRS
c1ccc(CNc2ccccc2N2CCCC2)nc1	3.085%	0.835%	41.98%	19.02%
COc1ccccc1C(C)NC(=O)NCCC(=O)NC1CCCCC1 (stereo not shown)	1.782%	8.391%	14.63%	11.06%
COCC1CN(c2ccc(C#N)c(Cl)c2)CCO1 (stereo not shown)	-0.97%	-26.64%	12.33%	6.897%
COc1ccc(OC)c(C(C)Nc2nc3c(C)nn(C)c3c(=O)n2C)c1 (stereo not shown)	3.728%	-10.66%	0.9434%	6.695%
c1ccc(-c2nc(CCNCc3ccncc3)co2)cc1	2.194%	-15.44%	18.09%	12.12%
COC(=O)c1ccc(N(C(=O)c2ccncc2)C(C)C)c(C)c1	-1.534%	-43.97%	4.145%	7.182%
O=C(O)CCc1ccc(S(=O)(=O)Nc2cnn(CC3CC3)c2)cc1	3.964%	6.898%	14.61%	6.736%
CC(=O)N1CCN(C(=O)Nc2cnc3c(cnn3C(C)C)c2)CC1	7.969%	-5.348%	-1.818%	2.924%
CCc1cnc(CN(C)C(C)C(=O)N2CCc3ccccc3C2)s1 (stereo not shown)	-1.48%	0.4625%	9.091%	10.34%
CC(Cn1cc(Br)cn1)C(=O)Nc1ccn(C)n1 (stereo not shown)	3.441%	-6.473%	5.31%	2.632%
CC(C)S(=O)(=O)NCC1CCCN(C(=O)c2ccc(Cl)cc2)C1 (stereo not shown)	-1.331%	14.54%	11.29%	6.186%
CCc1c(NCc2ccc(F)cc2)cnn1CC(C)C	2.91%	-	23.29%	-0.9852%
CS(=O)(=O)N1CCC(NC(=O)COc2ccccc2Cl)CC1	7.666%	-23.46%	10.26%	1.994%
CCC(C)NC(=O)c1cncc(Br)c1 (stereo not shown)	-1.487%	-13.91%	16.44%	12.43%
CC(C)COC(=O)N1CCCN(C(C)c2nc(C(C)C)no2)CC1 (stereo not shown)	-9.391%	0.3232%	-1.042%	2.762%
CC(C)c1nn(C)cc1CNCc1cccnc1N(C)C	-1.534%	-20.5%	9.326%	9.392%
COc1cc(N2C[C@H]3CCC[C@@H](CN(C)C)[C@H]3C2)ncn1	-2.368%	-5.759%	13.76%	9.244%
CCN1CCC(NC(=O)Cn2cc(C)c3ccccc32)CC1	5.263%	-10.58%	0%	3.175%
COCCO[C@H]1CCN(C(=O)c2ccsc2)[C@H]1Cc1cnn(C)c1	1.095%	-3.946%	20%	8.824%
CCn1ncc2c1C(COC)CN(Cc1ccc(F)cc1)C2 (stereo not shown)	-5.354%	-21.1%	12.5%	4.673%
CN(C)CCn1ccnc1C1CCCN(c2cc(N)ncn2)C1 (stereo not shown)	-0.4519%	-4.076%	12.94%	0.4484%
CN(C)CCN1CCN(Cc2ccco2)Cc2cccnc21	4.628%	-5.07%	9.722%	3.738%
COc1cc2ncn(CC(=O)NCCCN(C)C)c(=O)c2cc1OC	-1.608%	-17.67%	5.825%	0.5464%
O=C(C1SCCc2sccc21)N1CCN(C2CC2)C(=O)C1 (stereo not shown)	-0.8895%	-11.19%	11.61%	1.724%
Cc1sc(CS(C)(=O)=O)nc1-c1ccc(Cl)cc1	1.412%	-8.346%	12.05%	-4.972%
Fc1cccc(CCN(c2ccc3nnnn3n2)C2CC2)c1	-3.753%	2.666%	17.54%	2.521%
COCCN1CCC2(CC1)CN(C(=O)N(C)C)c1ccc(C)cc12	3.749%	-30.05%	6.015%	4.972%
N#CCSCCCN1CCN(C(=O)c2ccccc2F)CC1	2.061%	-2.513%	5.319%	5.025%
Cc1noc([C@@H]2C[C@H](NC(=O)NC(C)C)CN2C)n1	-1.29%	13.25%	4.054%	2.174%
O=C(c1ccno1)N1CC2(CCC(C(=O)N3CCCC3)O2)C1 (stereo not shown)	3.973%	-25.14%	3.419%	1.227%
CC(C)c1cc(C(=O)N2CCN(Cc3ccsc3)CC2)n[nH]1	-0.6706%	-7.264%	22.64%	-1.695%
CC(C)(C)NC(=O)CNc1ncccn1	2.585%	0.6941%	15.93%	7.143%
Cc1ccc(NC(=O)CNc2ccccc2C(N)=O)c(C)c1	-0.2546%	16.83%	20.99%	2.232%
CCN1CCC(CC(=O)NCC(O)c2ccc3ccccc3c2)CC1 (stereo not shown)	3.374%	-5.659%	-3.125%	2.128%
Cc1oncc1C(=O)N1CC[C@H]2[C@@H]1CCC(=O)N2c1cccnc1	1.289%	3.154%	3%	8.163%
CC(C)CN1CCC(c2nc3c([nH]2)CC(C)(C)CNC3=O)C1 (stereo not shown)	-5.341%	-10.5%	19.23%	0.8333%
CCCN(CC)C(=O)c1ncn2c1CN(C)S(=O)(=O)c1ccccc1-2	5.83%	-2.286%	26.6%	10.05%
Cc1csc2c(=O)n3c(nc12)CCN(C(=O)c1ccnn1C)CC3	-	21.62%	-10.14%	13.19%
CC(=O)N(Cc1ncc(C)o1)C1CCN(Cc2cccc(C#N)c2)C1 (stereo not shown)	2.515%	-13.34%	15.09%	1.695%
Cc1nn(CCC(=O)N(C)Cc2c(Cl)cnn2C)cc1Br	-3.317%	-10.35%	-5.618%	-8.808%
CC(C)Oc1ncccc1CNC(=O)N1CCOCC1	3.179%	-0.02183%	13.19%	0.6024%
O=C(C1=CCCC1)N1C[C@@H]2COC[C@]2(COc2ncccc2F)C1	-	-10.3%	11.82%	7.407%
O=C(CN1CCCC(c2ccn[nH]2)C1)N1CCCc2ccccc21 (stereo not shown)	11.55%	-2.13%	-1.036%	1.657%
COCC1N(S(=O)(=O)c2cn(C)cn2)[C@H]2CC[C@]1(O)CC2 (stereo partly shown)	-	6.614%	12.24%	5.618%
Cc1nc(C2CCCN(c3ncc(Br)cn3)C2)no1 (stereo not shown)	-4.27%	-3.942%	8.571%	8.247%
CC(C)CNC(=O)[C@H]1CCS(=O)(=O)[C@@H]2CN(Cc3cccc(Cl)c3)C[C@H]12	2.814%	-7.949%	1.923%	6.952%
O=C(c1ccncc1)N1CCC2(CC1)CCN(C(=O)c1cccnc1)C2	-	-41.41%	17.27%	11.64%
CN(C(=O)C1CCN(Cc2cnc3ccccn23)CC1)c1ccccc1	-8.078%	-27.26%	3.109%	3.867%
Cc1nccc(C2CCCN(S(=O)(=O)N3CCOCC3)C2)n1 (stereo not shown)	5.078%	-	1.439%	0.3831%
CS(=O)(=O)NCc1cccc(COC2CCCCC2)c1	-2.574%	5.278%	-1.176%	2.01%
CCn1nc(C)c2ccn(CC(=O)NCC3CCCO3)c(=O)c21 (stereo not shown)	-0.000007%	-8.048%	-47.19%	0.5025%
Cc1nn(C)c(Oc2cccnc2)c1NC(=O)C1CCCO1 (stereo not shown)	-3.445%	5.22%	12.82%	3.933%
CC(O)C1CCN(C(=O)Nc2nc(-c3ccccc3)ns2)CC1 (stereo not shown)	-6.032%	9.674%	19.74%	6.522%
COc1ccc(C2CN(c3ncccn3)CCN2C(C)=O)cc1 (stereo not shown)	0.1958%	-2.39%	5.594%	-1.13%
Cc1nccn1-c1ccc(NS(=O)(=O)c2cnn(C)c2)cn1	-0.7843%	-24.74%	31.33%	8.287%
COCCN(Cc1ccc(C)o1)C(=O)Nc1nnc2ccccn12	-7.244%	4.574%	18.25%	11.76%
CCc1cccc(N2CCC(NC(=O)c3ccncc3)CC2)c1	-9.457%	-18.49%	7.826%	0%
Cc1ccc(S(=O)(=O)NC(C)(C)CN)c(F)c1	2.285%	-26.78%	19.74%	6.404%
O=C(O)c1c(-c2cncnc2)ncc2c1CCN(Cc1cccnc1)C2	-	24.06%	30.19%	10%
Cc1ccc(-c2cc(C(=O)N(C)Cc3noc4c3CCCC4)[nH]n2)s1	3.366%	-28.79%	37.35%	14.43%
O=S(=O)(c1ccccc1)N1CCC2(CCCN2Cc2ccc(Cl)cc2)C1 (stereo not shown)	-2.971%	32.88%	22%	17.65%
CCn1cc(CNC(=O)CCn2ncc3c(Cl)cccc32)cn1	-1.813%	-6.638%	12.07%	0.8696%
COCC[C@]1(O)CCN(C(=O)c2cnn(C)c2)C[C@H]1C	-5.948%	-0.7608%	2.74%	1.622%
Cc1c(C2CCCN(C(=O)OC(C)(C)C)C2)n2c(nc1=O)CCC2 (stereo not shown)	-	6.791%	11.46%	3.191%
CCN1CCN(C(=O)c2[nH]c3ccccc3c2Cl)[C@H]2CS(=O)(=O)C[C@H]21	-1.341%	-18.51%	13.7%	14.21%
Cc1ccc(C(=O)N2CCc3ncc(Cn4cccn4)n3CC2)cn1	-1.507%	-15.28%	9.722%	5.714%

Some entries from above, unchanged:

compound,MtTrpRS,Pks13 thioesterase,LiHisRS,TcHisRS
CN(C(=O)C1CCN(Cc2cnc3ccccn23)CC1)c1ccccc1,-8.078%,-27.26%,3.109%,3.867%
CN(C)CCn1ccnc1C1CCCN(c2cc(N)ncn2)C1 (stereo not shown),-0.4519%,-4.076%,12.94%,0.4484%
Cc1nn(CCC(=O)N(C)Cc2c(Cl)cnn2C)cc1Br,-3.317%,-10.35%,-5.618%,-8.808%
O=C(CN1CCCC(c2ccn[nH]2)C1)N1CCCc2ccccc21 (stereo not shown),11.55%,-2.13%,-1.036%,1.657%
O=C(c1ccno1)N1CC2(CCC(C(=O)N3CCCC3)O2)C1 (stereo not shown),3.973%,-25.14%,3.419%,1.227%
CCCN(CC)C(=O)c1ncn2c1CN(C)S(=O)(=O)c1ccccc1-2,5.83%,-2.286%,26.6%,10.05%
Cc1nc(C2CCCN(c3ncc(Br)cn3)C2)no1 (stereo not shown),-4.27%,-3.942%,8.571%,8.247%
COCCN1CCC2(CC1)CN(C(=O)N(C)C)c1ccc(C)cc12,3.749%,-30.05%,6.015%,4.972%